Measured values as given in patent US20100190199A1, “GPR30 ESTROGEN RECEPTOR IN BREAST AND OVARIAN CANCERS” (Rhode Island Hospital, priority 2008, published 2010).
These are yes or no findings as the source states them, for the method shown. Some binding calls cover weakened binding; strength is not graded here.

Chains of the proteins cited; added tags and fusions are not shown. Lines headed by an entry give the natural chain unless they say otherwise; changes in a name come on top.
UniProt P08648: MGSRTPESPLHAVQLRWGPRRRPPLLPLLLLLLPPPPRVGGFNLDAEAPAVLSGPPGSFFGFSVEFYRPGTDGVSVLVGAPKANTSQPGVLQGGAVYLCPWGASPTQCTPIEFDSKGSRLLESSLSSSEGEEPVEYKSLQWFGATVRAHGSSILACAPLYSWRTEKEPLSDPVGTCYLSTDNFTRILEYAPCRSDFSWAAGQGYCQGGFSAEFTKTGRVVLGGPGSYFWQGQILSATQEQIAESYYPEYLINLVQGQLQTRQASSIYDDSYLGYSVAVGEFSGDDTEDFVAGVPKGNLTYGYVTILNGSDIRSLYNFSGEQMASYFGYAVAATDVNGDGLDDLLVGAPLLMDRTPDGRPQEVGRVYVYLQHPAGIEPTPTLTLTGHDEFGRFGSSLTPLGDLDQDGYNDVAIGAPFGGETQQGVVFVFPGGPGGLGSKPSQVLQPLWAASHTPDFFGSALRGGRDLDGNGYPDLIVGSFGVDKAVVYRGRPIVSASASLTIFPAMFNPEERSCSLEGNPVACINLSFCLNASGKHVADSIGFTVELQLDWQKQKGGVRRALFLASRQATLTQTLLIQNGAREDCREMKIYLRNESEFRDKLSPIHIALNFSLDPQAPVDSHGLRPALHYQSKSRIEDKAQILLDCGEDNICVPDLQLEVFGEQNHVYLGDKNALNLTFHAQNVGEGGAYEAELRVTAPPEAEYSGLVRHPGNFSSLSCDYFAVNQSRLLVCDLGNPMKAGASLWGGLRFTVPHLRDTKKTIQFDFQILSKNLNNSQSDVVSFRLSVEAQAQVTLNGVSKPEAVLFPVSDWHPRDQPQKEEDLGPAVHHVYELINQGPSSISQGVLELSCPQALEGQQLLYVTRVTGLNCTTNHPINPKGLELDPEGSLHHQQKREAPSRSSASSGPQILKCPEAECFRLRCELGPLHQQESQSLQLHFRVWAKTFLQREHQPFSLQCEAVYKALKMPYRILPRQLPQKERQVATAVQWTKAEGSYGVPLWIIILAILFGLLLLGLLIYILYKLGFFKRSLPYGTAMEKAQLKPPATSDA

Target: integrin α5β1 (UniProt P08648)
Assay: complex formation in human breast cancer cells after GPR30 stimulation; method not described

B1: Mutant Shc (317Y/F) (protein, UniProt P29353-2 1-473, looked up)
chain: MNKLSGGGGRRTRVEGGQLGGEEWTRHGSFVNKPTRGWLHPNDKVMGPGVSYLVRYMGCVEVLQSMRALDFNTRTQVTREAISLVCEAVPGAKGATRRRKPCSRPLSSILGRSNLKFAGMPITLTVSTSSLNLMAADCKQIIANHHMQSISFASGGDPDTAEYVAYVAKDPVNQRACHILECPEGLAQDVISTIGQAFELRFKQYLRNPPKLVTPHDRMAGFDGSAWDEEEEEPPDHQYYNDFPGKEPPLGGVVDMRLREGAAPGAARPTAPNAQTPSHLGATLPVGQPVGGDPEVRKQMPPPPPCPGRELFDDPSFVNVQNLDKARQAVGGAGPPNPAINGSAPRDLFDMKPFEDALRVPPPPQSVSMAEQLRGEPWFHGKLSRREAEALLQLNGDFLVRESTTTPGQYVLTGLQSGQPKHLLLVDPEGVVRTKDHRFESVSHLISYHMDNHLPIISAGSELCLQQPVERKL
  binding: binds
